No constants are given. Whether binding was seen depends on the method and setting. Binding calls can cover weak binding; strength is not graded here.
What was measured:
Assay in all cases: Western blotting, antibody at 2 µg/ml
[1] = target: nuclear HMGB1 (prepared from CHO-K1 cells) (derived from CHO-K1 cells)
[2] = target: apoptotic HMGB1 (prepared from CHO-K1 cells) (derived from CHO-K1 cells)
[3] = target: secondary necrotic HMGB1 (prepared from CHO-K1 cells) (derived from CHO-K1 cells)
[4] = target: necrotic HMGB1 (prepared from CHO-K1 cells) (derived from CHO-K1 cells)

Measured: binding

B1: #10-22 humanized antibody EV007156 (antibody, human IgG1, lambda, V domains shown)
VH: EVQLVESGGGLVQPGGSLKLSCAASGFTFSNAAMYWVRQASGKGLEWVARIRTKPNNYATYYADSVKGRFTISRDDSKNTAYLQMNSLKTEDTAVYYCTAPRRTEGIVSSGVDYWGQGTLVTVSS
VL: YELTQPPSVSVSPGQTASITCSGDELPKRYAYWYQQKPGQSIVRVIYKDSERPSGIPERFSGSSSGTTATLTISGTQAEDEADYYCHSTYSDDKLPVFGGGTKLTVLG
binds: all assays above

B2: rat anti-HMGB1 monoclonal antibody #10-22 (antibody, V domains shown)
VH: AVQLVESGGGLVQPKESLKISCAASGFTFSNAAMYWVRQAPGKGLEWVARIRTKPNNYATYYADSVKGRFTISRDDSKSMVYLQMDNLKTEDTAMYYCTAPRRTEGIVSSGVDYWGQGVMVTVSS
VL: YELIQPPSASVTLGNTVSITCSGDELPKRYAYWYQQKPDKSIVRVIYKDSERPSGISDRFSGSSSGTTATLTIRDTQAEDEADYYCHSTYSDDKLPVFGGGTKLTVLG
binds: all assays above

Source: patent US20150361164A1
